This test concerns the target mouse PD-L1 protein (ACRO, PD1-M5251) (mouse) (UniProt Q9EP73). As to the kind of experiment: Carterra chip kinetics.

The chains behind the UniProt entries cited, without tags or fusion partners.
UniProt Q9EP73: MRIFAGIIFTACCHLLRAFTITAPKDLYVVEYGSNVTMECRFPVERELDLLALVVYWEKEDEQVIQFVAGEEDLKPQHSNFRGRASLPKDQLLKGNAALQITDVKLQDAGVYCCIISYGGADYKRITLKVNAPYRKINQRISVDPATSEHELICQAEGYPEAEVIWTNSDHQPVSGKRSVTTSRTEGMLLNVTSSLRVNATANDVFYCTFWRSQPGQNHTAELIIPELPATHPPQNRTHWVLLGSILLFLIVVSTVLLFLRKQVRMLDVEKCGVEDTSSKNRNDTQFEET

These are yes or no findings as the source states them, for the method shown. Some results given as binding are weak or reduced against the parent protein; the word gives no strength.

B1: 4A7 nanobody (VHH)
VHH: EVQLVESGGGLVQAGDSLRLGCAASGRTFSTNVMGWFRQAPGKEREFVSAISRAGSTYSADSVKGRFTISRDNAENTVYLQMNSLKPEDTAVYYCAAGSSPTAIFGKSGMDYWGKGTLVTVSS
In the case of B1, the binding result is given as “binds”.
